The supplement of paper PMC4635364
Counter-ions that a name gives are not always drawn. Some of the results follow. Single values are uncertain here, since repeats match poorly.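 Cells: ReNCell VM human fetal ventral-midbrain neural progenitors, differentiated mitogen-free. Blinded raters compared doublecortin-stained (early neurons) or tyrosine hydroxylase-stained (dopaminergic neurons) images with untreated wells, where 0 means no change. After repeats and both raters were averaged, compounds scoring 2 or above became hits for retesting.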

Columns and labels:
[1] = system: ReNCell VM; test: neuronal differentiation score (DCX+ cell fraction vs untreated, manual image score) (score (-3 to 3)); higher = more neuronal differentiation; details: 2 uM, 2 weeks
[2] = system: ReNCell VM; test: dopaminergic neuron differentiation score (TH+ cell fraction vs untreated, manual image score) (score (0 to 3)); higher = more TH+ dopaminergic neuron differentiation; details: 2 uM, 4 weeks, BDNF 10 ng/ml + GDNF 10 ng/ml

Q: Which results are given for `CN1CC[C@]2(CCN3CCc4c(oc5ccccc45)[C@@H]3C2)N(C)C1=O`?
A: neuronal differentiation score ([1]; library: LOPAC): inactive: 1; dopaminergic neuron differentiation score ([2]; library: LOPAC): active: 3

Q: What does the source list for `O=C(O)c1nn(Cc2ccc(Cl)cc2Cl)c2ccccc12`?
A: neuronal differentiation score ([1]; library: Spectrum): inactive: 0; dopaminergic neuron differentiation score ([2]; library: Spectrum): inactive: 0

Q: For `C[CH2][Hg][S]c1ccccc1C(=O)[O-].[Na+]`, which neuronal differentiation score ([1]; library: Spectrum) is on record?
A: inactive: 0

Q: And the “dopaminergic neuron differentiation score” value ([2]; library: Spectrum)?
A: inactive: 0

Q: What does the source list for `CC(C)=CCC[C@]1(C)C=Cc2c(O)c3c(c(CC=C(C)C)c2O1)O[C@]12C(=C[C@@H]4C[C@H]1C(C)(C)O[C@@]2(C/C=C(/C)C(=O)O)C4=O)C3=O`?
A: neuronal differentiation score ([1]; library: Spectrum): inactive: 0; dopaminergic neuron differentiation score ([2]; library: Spectrum): inactive: 0

Q: With `C=CCc1cc(OC)c2c(c1OC)OCO2` as the molecule, how does the neuronal differentiation score ([1]; library: Spectrum) read?
A: inactive: 0

Q: And the “dopaminergic neuron differentiation score” value ([2]; library: Spectrum)?
A: inactive: 0

Q: What does the source list for `NC(N)=Nc1ccc2[nH]c3c(c2c1)C[C@@]1(O)[C@H]2Cc4ccc(O)c5c4[C@@]1(CCN2CC1CC1)[C@H]3O5` [GNTI dihydrochloride]?
A: neuronal differentiation score ([1]; library: Tocriscreen): inactive: 0; dopaminergic neuron differentiation score ([2]; library: Tocriscreen): inactive: 0

Q: How did the neuronal differentiation score ([1]; library: Spectrum) turn out when `CCOP(=S)(OCC)Oc1cc(C)nc(C(C)C)n1` was run?
A: inactive: 0

Q: And the “dopaminergic neuron differentiation score” value ([2]; library: Spectrum)?
A: inactive: 1

Q: Which neuronal differentiation score ([1]; library: Prestwick) does the source give for `CC(CCc1ccccc1)NC(C)C(O)c1ccc(O)cc1` (centres undefined) [Nylidrin] here?
A: inactive: 0

Q: What about the “dopaminergic neuron differentiation score” value ([2]; library: Prestwick) of the same molecule?
A: inactive: 0

Q: Which results are given for `CN(C)Cc1c[nH]c2ccccc12` [Gramine]?
A: neuronal differentiation score ([1]; library: Phytochemical): inactive: 0; dopaminergic neuron differentiation score ([2]; library: Phytochemical): inactive: 0

Q: What does the source list for `C[N+](C)(C)CCCCCCCCCC[N+](C)(C)C` [Decamethonium dibromide]?
A: neuronal differentiation score ([1]; library: LOPAC): inactive: 0; dopaminergic neuron differentiation score ([2]; library: LOPAC): inactive: 0

Q: For `CC(=O)OC1CN2CCC1CC2` (centres undefined), which neuronal differentiation score ([1]; library: Spectrum) is on record?
A: inactive: 0

Q: What about the “dopaminergic neuron differentiation score” value ([2]; library: Spectrum) of the same molecule?
A: inactive: 0

Q: How did the neuronal differentiation score ([1]; library: Tocriscreen) turn out when `C[N+]1(C)CCc2cc3c(cc2[C@H]1[C@@H]1OC(=O)c2c1ccc1c2OCO1)OCO3` [(-)-Bicuculline methiodide] was run?
A: inactive: 0

Q: What about the “dopaminergic neuron differentiation score” value ([2]; library: Tocriscreen) of the same molecule?
A: inactive: 0

Q: Which neuronal differentiation score ([1]; library: Spectrum) does the source give for `COc1ccc(O)c(C(C)(C)C)c1.COc1ccc(O)cc1C(C)(C)C` here?
A: inactive: 1

Q: And the “dopaminergic neuron differentiation score” value ([2]; library: Spectrum)?
A: inactive: 0

Q: With `COC(=O)[C@]1(C)CC[C@]2(C)CC[C@]3(C)C4=CC=C5C(=CC(=O)C(O)=C5C)[C@]4(C)CC[C@@]3(C)[C@@H]2C1` as the molecule, how does the neuronal differentiation score ([1]; library: Spectrum) read?
A: inactive: 0

Q: What about the “dopaminergic neuron differentiation score” value ([2]; library: Spectrum) of the same molecule?
A: inactive: 0

Q: Which neuronal differentiation score ([1]; library: Spectrum) does the source give for `[O-][n+]1ccccc1[S-].[O-][n+]1ccccc1[S-].[Zn+2]` here?
A: inactive: 1

Q: What about the “dopaminergic neuron differentiation score” value ([2]; library: Spectrum) of the same molecule?
A: inactive: 0

Q: Which results are given for `C[C@@H]1NCCc2cc(O)c(O)cc21`?
A: neuronal differentiation score ([1]; library: Spectrum): inactive: 0; dopaminergic neuron differentiation score ([2]; library: Spectrum): inactive: 0

Q: Which neuronal differentiation score ([1]; library: Spectrum) does the source give for `Cc1ncc(C[n+]2csc(CCO)c2C)c(=O)[nH]1` here?
A: inactive: 0

Q: And the “dopaminergic neuron differentiation score” value ([2]; library: Spectrum)?
A: inactive: 0

Q: Which neuronal differentiation score ([1]; library: Spectrum) does the source give for `CN[C@@H](C)[C@@H](O)c1ccccc1` here?
A: inactive: 0

Q: And the “dopaminergic neuron differentiation score” value ([2]; library: Spectrum)?
A: inactive: 0

Q: `COc1ccc(C(=O)N2CCCC2=O)cc1` was tested. Which neuronal differentiation score ([1]; library: Spectrum) did it give?
A: inactive: 0

Q: What about the “dopaminergic neuron differentiation score” value ([2]; library: Spectrum) of the same molecule?
A: inactive: 0

Q: With `CCN(CC)C(C)C(=O)c1ccccc1` (centres undefined) [Amfepramone hydrochloride] as the molecule, how does the neuronal differentiation score ([1]; library: Prestwick) read?
A: inactive: 0

Q: What about the “dopaminergic neuron differentiation score” value ([2]; library: Prestwick) of the same molecule?
A: inactive: 0

Q: With `CC(C)(C)NCC(O)c1ccccc1Cl` (centres undefined) [Tulobuterol] as the molecule, how does the neuronal differentiation score ([1]; library: Prestwick) read?
A: inactive: 0

Q: And the “dopaminergic neuron differentiation score” value ([2]; library: Prestwick)?
A: inactive: 0

Q: With `COc1ccc2[nH]cc(CCN)c2c1` as the molecule, how does the neuronal differentiation score ([1]; library: Spectrum) read?
A: inactive: 0

Q: What about the “dopaminergic neuron differentiation score” value ([2]; library: Spectrum) of the same molecule?
A: inactive: 0

Q: Which neuronal differentiation score ([1]; library: LOPAC) does the source give for `CC(C)(C)c1cc(C=C(C#N)C#N)cc(C(C)(C)C)c1O` [Tyrphostin A9] here?
A: inactive: 0

Q: What about the “dopaminergic neuron differentiation score” value ([2]; library: LOPAC) of the same molecule?
A: inactive: 0

Q: Which results are given for `CCC(Oc1ccc(Cl)cc1)C(=O)OC1C[C@H]2CC[C@@H](C1)N2C` (some centres undefined) [SM-21 maleate]?
A: neuronal differentiation score ([1]; library: Tocriscreen): inactive: 0; dopaminergic neuron differentiation score ([2]; library: Tocriscreen): inactive: 0

Q: How did the neuronal differentiation score ([1]; library: Tocriscreen) turn out when `Cc1cccc(C(C)c2c[nH]cn2)c1C` (centres undefined) [Medetomidine hydrochloride] was run?
A: inactive: 0

Q: And the “dopaminergic neuron differentiation score” value ([2]; library: Tocriscreen)?
A: inactive: 0

Q: `N.N.[Cl][Pt][Cl]` was tested. Which neuronal differentiation score ([1]; library: Spectrum) did it give?
A: inactive: 0

Q: And the “dopaminergic neuron differentiation score” value ([2]; library: Spectrum)?
A: inactive: 0

Q: `CC1=C2[C@H]3OC(=O)[C@@H](C)[C@@H]3CC[C@@]2(C)C=CC1=O` was tested. Which neuronal differentiation score ([1]; library: Spectrum) did it give?
A: inactive: 0

Q: What about the “dopaminergic neuron differentiation score” value ([2]; library: Spectrum) of the same molecule?
A: inactive: 0

Q: What does the source list for `CCCN(CCC)C1CCc2ccc(O)cc2C1` (centres undefined) [7-Hydroxy-DPAT hydrobromide]?
A: neuronal differentiation score ([1]; library: Tocriscreen): inactive: 0; dopaminergic neuron differentiation score ([2]; library: Tocriscreen): inactive: 0

Q: With `CC[C@@]1(O)C(=O)OCc2c1cc1n(c2=O)Cc2cc3ccccc3nc2-1` [(S)-(+)-Camptothecin] as the molecule, how does the neuronal differentiation score ([1]; library: LOPAC) read?
A: inactive: 0

Q: And the “dopaminergic neuron differentiation score” value ([2]; library: LOPAC)?
A: inactive: 0

Q: With `c1ccc2sc(C3(N4CCCCC4)CCCCC3)cc2c1` [BTCP hydrochloride] as the molecule, how does the neuronal differentiation score ([1]; library: LOPAC) read?
A: inactive: 0

Q: And the “dopaminergic neuron differentiation score” value ([2]; library: LOPAC)?
A: inactive: 0

Q: With `C[C@@H]1O[C@@H](O[C@H]2C[C@@H](O)[C@]3(CO)[C@H]4[C@H](O)C[C@]5(C)[C@@H](C6=CC(=O)OC6)CC[C@]5(O)[C@@H]4CC[C@]3(O)C2)[C@H](O)[C@H](O)[C@H]1O` [Strophantine octahydrate] as the molecule, how does the neuronal differentiation score ([1]; library: Phytochemical) read?
A: inactive: 0

Q: And the “dopaminergic neuron differentiation score” value ([2]; library: Phytochemical)?
A: inactive: 0

Q: For `C=C1C2CC3(C4C[C@H]5C6(C(O)CC[C@@]5(C)C[N@+]([O-])(CC)[C@H]46)[C@@H]3CC2=O)[C@@H]1O` (some centres undefined) [songorine n-oxide], which neuronal differentiation score ([1]; library: Natural) is on record?
A: inactive: 0

Q: And the “dopaminergic neuron differentiation score” value ([2]; library: Natural)?
A: inactive: 0
